Data source: PubChem BioAssay AID1159584 (Peter MacCallum Cancer Centre, 2016)
The deposit covers about 18,000 reagents; this is a part drawn at random. Not all columns of the deposit are shown. The record does not give: the amount of reagent, the time to read-out.

- Screen: 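Genes that CDH1-null MCF10A cells selectively depend on to survive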 (primary screen)
- System: human MCF10A breast epithelial cells, parental and CDH1-null
- Reagent: siRNA against human genes
- Measurement: 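ATP luminescence (CellTiter-Glo) viability per line relative to mean mock wells over all plates, and the ratio of CDH1-null to parental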
- Reading the numbers: CDH1-null / parental viability ratio: higher = CDH1-null cells survive relatively better than parental

gene | CDH1-null / parental viability ratio
DET1 | 0.79
AMIGO2 | 1.5
MUC1 | 1.1
CFAP161 | 0.65
DKKL1 | 1.06
BOLA2 | 1.13
OS9 | 1.03
ZC3HAV1L | 0.89
CSRNP1 | 1.07
MPHOSPH10 | 1
MYF5 | 1.07
NCOA7 | 1.03
SLC25A24 | 0.9
ADCY4 | 0.92
DHX33 | 1.14
ZBTB5 | 1.19
CDC42SE1 | 0.94
PLSCR2 | 1.06
ACTRT3 | 0.91
MYO7A | 1.06
PEX12 | 0.97
DERL3 | 1.13
SND1 | 1.16
HDAC11 | 1.07
BMI1 | 1
TCEAL4 | 1.37
CIB4 | 1.1
PIGH | 0.9
MYO18B | 0.97
RASIP1 | 1.02
CYBC1 | 1.19
PSMB2 | 1.22
MAPK14 | 0.94
RIPOR2 | 0.96
HMGB3 | 0.96
AIF1 | 1.13
CCDC121 | 0.74
NSA2 | 1.21
AKAP14 | 1
UBXN6 | 1.79
ZSCAN22 | 0.86
TIGAR | 1.07
TMEM80 | 0.85
ING5 | 1.24
THUMPD3 | 1.1
CBX8 | 0.99
ZP3 | 1.27
GPR15 | 0.86
CA8 | 1.05
PTPRF | 1.19
SLC26A11 | 0.9
ACP5 | 1.35
H2AC7 | 0.93
LYSMD4 | 0.98
C1orf116 | 1.05
LEPROTL1 | 1.02
BMS1 | 1.13
CFAP20DC | 1.17
SPATA13 | 0.98
POLR1B | 0.9
SLC25A23 | 1.12
FBXO16 | 1.24
SLC45A3 | 1.3
DPCD | 1.2
CHI3L1 | 1.14
TEF | 0.92
REXO1 | 0.99
TDO2 | 0.97
CTRC | 1.52
NOP53 | 0.74
C1orf216 | 0.79
CRYAA | 1.75
SEC14L4 | 0.97
TRIM50 | 0.7
IL33 | 1.17
RAB10 | 1
TIPE3 | 0.85
TINAG | 1.22
TLR2 | 1.21
FUT9 | 1.06
ZNRF3 | 0.98
GFI1 | 0.87
ZIM3 | 0.73
BAG2 | 0.9
GPR139 | 0.85
OR5D13 | 1.28
GPR63 | 0.72

Laid out differently: 5 of the entries above.
ZC3HAV1L
- CDH1-null / parental viability ratio: 0.89

CSRNP1
- CDH1-null / parental viability ratio: 1.07

MPHOSPH10
- CDH1-null / parental viability ratio: 1

MYF5
- CDH1-null / parental viability ratio: 1.07

NCOA7
- CDH1-null / parental viability ratio: 1.03
